Laboratory results reported in the supplement of paper PMC8728848.
Some of the results follow.

What was measured:
Assay in all cases: glycan array binding signal (z-score within array); higher = stronger binding
Settings in all cases: glycan notation: IUPAC condensed, linker removed
[1] = target: Gal(b1-4)GlcNAc(b1-3)Gal(b1-4)GlcNAc(b1-3)Gal(b1-4)GlcNAc(b1-3)Gal(b1-4)GlcNAc(b1-3)Gal(b1-4)GlcNAc(b1-2)[Gal(b1-4)GlcNAc(b1-3)Gal(b1-4)GlcNAc(b1-3)Gal(b1-4)GlcNAc(b1-3)Gal(b1-4)GlcNAc(b1-3)Gal(b1-4)GlcNAc(b1-6)]Man(a1-6)[Gal(b1-4)GlcNAc(b1-3)Gal(b1-4)GlcNAc(b1-3)Gal(b1-4)GlcNAc(b1-3)Gal(b1-4)GlcNAc(b1-3)Gal(b1-4)GlcNAc(b1-2)Man(a1-3)]Man(b1-4)GlcNAc(b1-4)[Fuc(a1-6)]GlcNAc
In short: (§1)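 Glycan array binding is given as a within-array Z-score, which can be read as non-binding when negative. The arrays, 3228 of them, came from the Consortium for Functional Glycomics database and were retained only where the protein sequence was available. Z-scores were averaged across arrays of the same protein sequence at different concentrations or buffers and across linkers.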

[2] = target: Gal(b1-4)GlcNAc(b1-3)Gal(b1-4)GlcNAc(b1-3)Gal(b1-4)GlcNAc(b1-3)Gal(b1-4)GlcNAc(b1-3)Gal(b1-4)GlcNAc(b1-3)Gal(b1-4)GlcNAc(b1-2)Man(a1-3)[Gal(b1-4)GlcNAc(b1-3)Gal(b1-4)GlcNAc(b1-3)Gal(b1-4)GlcNAc(b1-3)Gal(b1-4)GlcNAc(b1-3)Gal(b1-4)GlcNAc(b1-3)Gal(b1-4)GlcNAc(b1-2)Man(a1-6)]Man(b1-4)GlcNAc(b1-4)GlcNAc
In short: as §1

[3] = target: Gal(b1-4)GlcNAc(b1-3)Gal(b1-4)GlcNAc(b1-3)GalNAc
In short: as §1

[4] = target: Gal(b1-4)GlcNAc(b1-3)Gal(b1-4)GlcNAc(b1-3)[Gal(b1-4)GlcNAc(b1-3)Gal(b1-4)GlcNAc(b1-6)]GalNAc
In short: as §1

[5] = target: Gal(b1-4)GlcNAc(b1-3)Gal(b1-4)GlcNAc(b1-6)[Gal(b1-3)]GalNAc
In short: as §1

[6] = target: Gal(b1-4)GlcNAc(b1-3)Gal(b1-4)[Fuc(a1-3)]GlcNAc(b1-3)Gal(b1-4)[Fuc(a1-3)]GlcNAc
In short: as §1

[7] = target: Gal(b1-4)GlcNAc(b1-3)GalNAc
In short: as §1

[8] = target: Gal(b1-4)GlcNAc(b1-3)[Fuc(a1-3)GlcNAc(b1-6)]Gal(b1-4)Glc
In short: as §1

[9] = target: Gal(b1-4)GlcNAc(b1-3)[Gal(b1-4)GlcNAc(b1-6)]Gal(b1-4)GlcNAc
In short: as §1

[10] = target: Gal(b1-4)GlcNAc(b1-3)[GlcNAc(b1-6)]Gal(b1-4)GlcNAc
In short: as §1

[11] = target: Gal(b1-4)GlcNAc(b1-6)Gal(b1-4)GlcNAc
In short: as §1

[12] = target: Gal(b1-4)GlcNAc(b1-6)GalNAc
In short: as §1

[13] = target: Gal(b1-4)GlcNAc(b1-6)[Gal(b1-3)]GalNAc
In short: as §1

[14] = target: Gal(b1-4)GlcNAc(b1-6)[Gal(b1-4)GlcNAc(b1-3)]GalNAc
In short: as §1

[15] = target: Gal(b1-4)GlcNAc6P
In short: as §1

[16] = target: Gal(b1-6)Gal
In short: as §1

[17] = target: Gal3S(b1-3)GalNAc
In short: as §1

[18] = target: Gal3S(b1-3)GlcNAc
In short: as §1

[19] = target: Gal3S(b1-3)[Fuc(a1-4)]GlcNAc
In short: as §1

B1: PX14404-bvu-534-26-534 (Bacteroides vulgatus) (protein)
chain: EDPRGKLTPENFFSTQDELNMSIYALYQKVNLSQVYTNMQLPQWQGDDITTNPGSNKQPAAEMDKFAAANNNKGVKDAWNMHYAIVKAANLIIQGASKTPTTQDEINIALGQAKFWRAYAYFTLVRLWGPLPMNLDNVNDDYTKPLSPVEEVYGHIVQDLTEAEAVLPTGYSGSPRFLNGVNVYVTRQAAKSTLAAVYMAMAGWPMNKTEYYAKAAEKAKEVIEGVNRGEYEYKLDKDYKDVYAMSNNYNNETVLGINYSPFVDWAQDSELTSCNQFESLGGWGDAWGEIRFWKEFPDGPRKDATYDPKIRLKDGTLVDWWELKEDGTPVVPEHHPMFSIFSVNWDPASKVNTSAPYDYTKPASQNMCNDHRHRIIRYSEVLLWYAEAKARTGQTDELAFKCLNDVRERAGLEPLTGLSADDLAEAAYKEHGWEVAGYWVALVTRRADQFRMNRLKDTFKERAENTAVEVADGILVKESVEYTNRTWSDNLMYLPYPDMDSQKNPNLVR
glycan array binding signal (z-score) [1]: 0.462 | glycan array binding signal (z-score) [2]: 0.739 | glycan array binding signal (z-score) [3]: -0.874 | glycan array binding signal (z-score) [4]: -0.105 | glycan array binding signal (z-score) [5]: 4.7 | glycan array binding signal (z-score) [6]: 0.283 | glycan array binding signal (z-score) [7]: -0.885 | glycan array binding signal (z-score) [8]: -0.519 | glycan array binding signal (z-score) [9]: -0.831 | glycan array binding signal (z-score) [10]: -0.89 | glycan array binding signal (z-score) [11]: -0.548 | glycan array binding signal (z-score) [12]: -0.624 | glycan array binding signal (z-score) [13]: -0.167 | glycan array binding signal (z-score) [14]: 0.13 | glycan array binding signal (z-score) [15]: -0.926 | glycan array binding signal (z-score) [16]: -0.531 | glycan array binding signal (z-score) [17]: 0.163 | glycan array binding signal (z-score) [18]: 0.469 | glycan array binding signal (z-score) [19]: -0.32
